This is one part of the list.
Experiments:
Assay in all cases: log2 fold change, soluble protein after heating vs DMSO (PISA); higher = thermal stabilisation; K562 cells, 10 uM, 30 min; active = over 0.2 and 3.5 SD of the protein, either way, in both replicates (recomputed)
[1] = compound: CC1=C(C=C(C=C1)NC(=O)C2=CC(=CC=C2)C(C)(C)C#N)NC3=CC4=C(C=C3)N=CN(C4=O)C
Procedure, shortened: (§1)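 Aliquots of K562 cells (2×10^6 cells/mL) treated with 10 μM compound for 30 min were heated for 3 min over 48°C-58°C. After pooling and extraction in PBS with 0.5% NP-40 at 4°C, soluble protein from a 21,000xg, 90 min spin was quantified by TMTpro 16plex LC-MS/MS with channel sums equalised. Thermal stability is expressed against control samples, from duplicates, as a log2 fold change.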

The chains behind the UniProt entries cited, without tags or fusion partners. Where a name states a change or a piece, a line headed by the entry shows the natural chain unless it says otherwise.
UniProt Q96LB3: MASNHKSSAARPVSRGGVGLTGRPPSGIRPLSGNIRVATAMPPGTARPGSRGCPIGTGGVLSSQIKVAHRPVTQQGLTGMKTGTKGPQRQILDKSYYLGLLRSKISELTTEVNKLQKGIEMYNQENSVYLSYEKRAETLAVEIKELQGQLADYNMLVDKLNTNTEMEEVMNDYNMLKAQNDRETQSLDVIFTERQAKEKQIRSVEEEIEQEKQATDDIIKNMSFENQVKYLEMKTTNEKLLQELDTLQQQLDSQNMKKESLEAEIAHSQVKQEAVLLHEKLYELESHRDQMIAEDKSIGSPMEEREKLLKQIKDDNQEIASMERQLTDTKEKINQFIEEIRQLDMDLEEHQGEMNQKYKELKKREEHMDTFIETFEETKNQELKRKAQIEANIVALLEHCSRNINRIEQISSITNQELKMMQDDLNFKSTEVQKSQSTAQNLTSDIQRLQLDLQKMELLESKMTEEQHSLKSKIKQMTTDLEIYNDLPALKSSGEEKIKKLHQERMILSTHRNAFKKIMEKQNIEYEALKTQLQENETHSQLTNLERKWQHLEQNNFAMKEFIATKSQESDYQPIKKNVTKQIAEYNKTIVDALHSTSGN
UniProt Q96LU5: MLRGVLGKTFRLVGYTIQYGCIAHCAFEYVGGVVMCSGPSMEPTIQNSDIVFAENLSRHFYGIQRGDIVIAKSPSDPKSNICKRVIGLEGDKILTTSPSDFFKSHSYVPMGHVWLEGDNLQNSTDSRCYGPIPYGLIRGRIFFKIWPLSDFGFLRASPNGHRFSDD
UniProt Q9NVH2, whole entry, looked up: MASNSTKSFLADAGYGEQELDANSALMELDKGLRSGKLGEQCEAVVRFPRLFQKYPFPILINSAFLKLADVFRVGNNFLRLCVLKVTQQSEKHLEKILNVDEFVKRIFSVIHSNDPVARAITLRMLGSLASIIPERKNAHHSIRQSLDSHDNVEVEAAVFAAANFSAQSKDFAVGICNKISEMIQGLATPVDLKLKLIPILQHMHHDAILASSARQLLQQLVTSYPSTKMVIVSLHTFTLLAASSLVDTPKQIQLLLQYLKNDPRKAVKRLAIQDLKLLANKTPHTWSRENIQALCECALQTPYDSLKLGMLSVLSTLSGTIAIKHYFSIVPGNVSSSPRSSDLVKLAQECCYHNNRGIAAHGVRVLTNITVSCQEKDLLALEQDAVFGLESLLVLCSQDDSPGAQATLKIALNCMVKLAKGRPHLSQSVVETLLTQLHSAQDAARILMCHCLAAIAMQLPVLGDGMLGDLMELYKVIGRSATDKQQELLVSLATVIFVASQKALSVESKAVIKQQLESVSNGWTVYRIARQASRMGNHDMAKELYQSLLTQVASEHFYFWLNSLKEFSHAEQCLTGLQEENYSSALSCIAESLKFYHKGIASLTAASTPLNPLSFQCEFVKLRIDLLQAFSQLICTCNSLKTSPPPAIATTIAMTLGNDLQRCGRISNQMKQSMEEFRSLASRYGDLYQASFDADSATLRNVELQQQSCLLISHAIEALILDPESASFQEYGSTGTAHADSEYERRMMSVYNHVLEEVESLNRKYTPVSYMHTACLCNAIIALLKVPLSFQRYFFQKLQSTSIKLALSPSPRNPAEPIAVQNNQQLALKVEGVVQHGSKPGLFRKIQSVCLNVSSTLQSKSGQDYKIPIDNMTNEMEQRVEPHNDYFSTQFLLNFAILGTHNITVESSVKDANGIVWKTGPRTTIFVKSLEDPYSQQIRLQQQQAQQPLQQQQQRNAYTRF
UniProt P38570: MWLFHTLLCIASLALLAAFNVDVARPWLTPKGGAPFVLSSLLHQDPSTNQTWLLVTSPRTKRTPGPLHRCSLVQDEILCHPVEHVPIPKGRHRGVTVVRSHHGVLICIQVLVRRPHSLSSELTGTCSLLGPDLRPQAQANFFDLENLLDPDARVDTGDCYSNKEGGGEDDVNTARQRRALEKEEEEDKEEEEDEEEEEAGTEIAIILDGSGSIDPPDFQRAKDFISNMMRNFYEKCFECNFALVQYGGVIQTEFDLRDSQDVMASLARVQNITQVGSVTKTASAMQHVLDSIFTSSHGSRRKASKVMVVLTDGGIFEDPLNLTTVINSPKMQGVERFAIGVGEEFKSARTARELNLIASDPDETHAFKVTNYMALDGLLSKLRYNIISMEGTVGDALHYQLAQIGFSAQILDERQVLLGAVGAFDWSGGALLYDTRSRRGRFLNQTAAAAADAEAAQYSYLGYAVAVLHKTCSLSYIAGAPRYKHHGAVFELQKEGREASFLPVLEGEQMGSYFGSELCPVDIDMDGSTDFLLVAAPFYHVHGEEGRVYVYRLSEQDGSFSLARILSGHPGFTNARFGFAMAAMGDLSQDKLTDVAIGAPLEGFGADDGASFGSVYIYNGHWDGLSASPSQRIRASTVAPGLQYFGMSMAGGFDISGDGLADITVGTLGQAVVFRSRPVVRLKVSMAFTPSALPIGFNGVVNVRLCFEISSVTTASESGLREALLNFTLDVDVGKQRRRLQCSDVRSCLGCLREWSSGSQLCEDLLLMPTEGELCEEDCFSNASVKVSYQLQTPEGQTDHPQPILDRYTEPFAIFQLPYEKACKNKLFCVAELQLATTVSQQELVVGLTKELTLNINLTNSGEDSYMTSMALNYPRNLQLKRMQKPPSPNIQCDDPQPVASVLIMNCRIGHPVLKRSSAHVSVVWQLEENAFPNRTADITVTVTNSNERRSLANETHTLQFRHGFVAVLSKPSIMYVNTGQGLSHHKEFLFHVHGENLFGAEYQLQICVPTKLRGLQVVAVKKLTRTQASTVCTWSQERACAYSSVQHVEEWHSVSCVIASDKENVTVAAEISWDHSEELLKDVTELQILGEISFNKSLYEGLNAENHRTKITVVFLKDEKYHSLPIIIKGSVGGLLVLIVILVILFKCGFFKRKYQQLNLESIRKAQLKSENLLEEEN
UniProt O00458: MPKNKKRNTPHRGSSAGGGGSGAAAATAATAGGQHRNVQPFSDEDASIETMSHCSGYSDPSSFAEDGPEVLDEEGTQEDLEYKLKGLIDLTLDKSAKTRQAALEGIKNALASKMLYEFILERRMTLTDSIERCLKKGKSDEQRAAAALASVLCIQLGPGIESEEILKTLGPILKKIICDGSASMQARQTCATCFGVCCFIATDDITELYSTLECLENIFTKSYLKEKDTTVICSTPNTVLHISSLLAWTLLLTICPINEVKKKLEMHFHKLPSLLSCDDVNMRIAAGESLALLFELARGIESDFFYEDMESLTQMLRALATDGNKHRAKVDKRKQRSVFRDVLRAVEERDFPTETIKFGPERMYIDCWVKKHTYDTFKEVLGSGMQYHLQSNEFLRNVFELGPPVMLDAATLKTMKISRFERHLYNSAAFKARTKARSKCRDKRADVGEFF
UniProt A1L0T0: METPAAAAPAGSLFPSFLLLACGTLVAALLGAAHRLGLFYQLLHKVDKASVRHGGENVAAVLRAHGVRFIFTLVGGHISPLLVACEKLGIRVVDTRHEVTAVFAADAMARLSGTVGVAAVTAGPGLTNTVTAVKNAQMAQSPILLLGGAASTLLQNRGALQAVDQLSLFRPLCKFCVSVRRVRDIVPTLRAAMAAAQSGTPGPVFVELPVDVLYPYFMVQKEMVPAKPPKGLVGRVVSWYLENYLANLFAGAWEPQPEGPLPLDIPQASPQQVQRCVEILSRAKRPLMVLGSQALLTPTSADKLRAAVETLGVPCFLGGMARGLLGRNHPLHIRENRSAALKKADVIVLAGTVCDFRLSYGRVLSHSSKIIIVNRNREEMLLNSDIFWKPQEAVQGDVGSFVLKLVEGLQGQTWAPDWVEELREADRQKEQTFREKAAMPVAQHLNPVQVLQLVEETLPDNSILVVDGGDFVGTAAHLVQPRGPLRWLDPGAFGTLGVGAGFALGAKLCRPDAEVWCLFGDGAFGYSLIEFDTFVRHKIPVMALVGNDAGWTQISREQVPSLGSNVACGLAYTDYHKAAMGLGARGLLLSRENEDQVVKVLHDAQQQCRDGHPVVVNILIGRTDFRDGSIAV
UniProt Q12905: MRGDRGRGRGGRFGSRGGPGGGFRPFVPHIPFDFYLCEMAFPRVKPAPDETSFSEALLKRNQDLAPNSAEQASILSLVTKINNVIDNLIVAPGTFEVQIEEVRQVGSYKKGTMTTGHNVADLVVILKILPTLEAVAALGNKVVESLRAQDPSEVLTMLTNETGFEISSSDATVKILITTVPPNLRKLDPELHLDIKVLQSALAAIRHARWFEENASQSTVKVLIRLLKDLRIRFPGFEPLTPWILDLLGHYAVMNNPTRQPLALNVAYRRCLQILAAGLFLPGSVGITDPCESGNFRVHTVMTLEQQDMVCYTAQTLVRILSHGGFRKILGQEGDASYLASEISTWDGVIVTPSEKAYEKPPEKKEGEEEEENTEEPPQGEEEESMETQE
UniProt O95373, whole entry, looked up: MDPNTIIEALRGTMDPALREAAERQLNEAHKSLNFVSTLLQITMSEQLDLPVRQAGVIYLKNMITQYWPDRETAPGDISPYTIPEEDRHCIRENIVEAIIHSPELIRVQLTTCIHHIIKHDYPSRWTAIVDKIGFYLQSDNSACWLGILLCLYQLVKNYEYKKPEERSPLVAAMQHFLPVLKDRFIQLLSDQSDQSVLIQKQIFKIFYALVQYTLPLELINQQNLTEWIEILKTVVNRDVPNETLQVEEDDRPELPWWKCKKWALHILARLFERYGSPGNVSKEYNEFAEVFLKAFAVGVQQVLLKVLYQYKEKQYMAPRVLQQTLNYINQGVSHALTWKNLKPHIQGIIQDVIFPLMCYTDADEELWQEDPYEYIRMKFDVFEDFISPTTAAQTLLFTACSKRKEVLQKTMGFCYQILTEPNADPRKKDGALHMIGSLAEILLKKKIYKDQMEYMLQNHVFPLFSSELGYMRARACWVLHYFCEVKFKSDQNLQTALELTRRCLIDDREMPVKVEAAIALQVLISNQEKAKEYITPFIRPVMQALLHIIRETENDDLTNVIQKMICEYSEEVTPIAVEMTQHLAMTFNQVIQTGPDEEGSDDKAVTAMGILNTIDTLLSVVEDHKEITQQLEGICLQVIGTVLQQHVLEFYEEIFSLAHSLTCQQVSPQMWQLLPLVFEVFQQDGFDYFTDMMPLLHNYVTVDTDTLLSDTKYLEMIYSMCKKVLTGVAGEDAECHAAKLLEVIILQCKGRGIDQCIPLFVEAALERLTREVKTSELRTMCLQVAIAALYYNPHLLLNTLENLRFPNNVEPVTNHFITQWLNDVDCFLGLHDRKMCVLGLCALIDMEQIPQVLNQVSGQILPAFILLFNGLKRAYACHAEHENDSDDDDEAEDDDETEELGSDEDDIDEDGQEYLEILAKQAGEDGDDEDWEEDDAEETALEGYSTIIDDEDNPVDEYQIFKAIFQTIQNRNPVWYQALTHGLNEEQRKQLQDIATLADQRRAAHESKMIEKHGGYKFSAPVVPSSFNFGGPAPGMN

[2] = compound: CC1=C(C=C(C=C1)NC(=O)C2=CC(=CC=C2)N(C)C)NC(=O)C3=CC=C(C=C3)O
Procedure, shortened: as §1

[3] = compound: CC1=CC=C(C=C1)SC2=C3C=C(SC3=CN=C2)C(=O)N
Procedure, shortened: as §1

[4] = compound: CC1=NC(=CC=C1)C2=C(N=C(N2)C(C)(C)C)C3=CC4=NC=CN=C4C=C3
Procedure, shortened: as §1

[5] = compound: CCCCN(Cc1ccc(C(=O)NO)cc1)C(=O)Nc1ccccc1 [Nexturastat A]
Procedure, shortened: as §1

[6] = compound: CCCS(=O)(=O)Nc1ccc(F)c(C(=O)c2c[nH]c3ncc(-c4ccc(Cl)cc4)cc23)c1F [vemurafenib]
Procedure, shortened: as §1

[7] = compound: CCCS(=O)(=O)Nc1ccc(F)c(C(=O)c2c[nH]c3ncc(Cl)cc23)c1F
Procedure, shortened: as §1

[8] = compound: CCCc1cc(C)[nH]c(=O)c1CNC(=O)c1cc(-c2ccnc(N3CCN(C)CC3)c2)cc2c1cnn2C(C)C
Procedure, shortened: as §1

[9] = compound: CCN(CC)Cc1ccc2cc(COC(=O)Nc3ccc(C(=O)NO)cc3)ccc2c1 [givinostat]
Procedure, shortened: as §1

[10] = compound: CCN(CCCOc1ccc2c(Nc3cc(CC(=O)Nc4cccc(F)c4)[nH]n3)ncnc2c1)CCOP(=O)(O)O [barasertib]
Procedure, shortened: as §1

[11] = compound: CC[C@@H]1C(=O)N(C)c2cnc(Nc3ccc(C(=O)NC4CCN(C)CC4)cc3OC)nc2N1C1CCCC1
Procedure, shortened: as §1

[12] = compound: CC[C@@H]1C(=O)N(C)c2cnc(Nc3ccc(C(=O)N[C@H]4CC[C@H](N5CCN(CC6CC6)CC5)CC4)cc3OC)nc2N1C(C)C [volasertib]
Procedure, shortened: as §1

[13] = compound: CC[C@H](C)N1C=C(C2=C(C=C(C=C21)C3=CN=C(C=C3)N4CCNCC4)C(=O)NCC5=C(C=C(NC5=O)C)C)C
Procedure, shortened: as §1

[14] = compound: CC[C@H](C)[C@@H](C(=O)N[C@@H]([C@@H](C)O)C(=O)N[C@@H](CC(C)C)C(=O)[C@]1(CO1)C)NC(=O)[C@H]([C@@H](C)CC)N(C)C(=O)C [epoxomicin]
Procedure, shortened: as §1

[15] = compound: CCn1cc(-c2ccnc3[nH]c(-c4cccc(CN(C)C)c4)cc23)c(-c2ccc(NC(=O)N(C)C)cc2)n1
Procedure, shortened: as §1

[16] = compound: CN(C)CC(=O)Nc1ccc2[nH]c(=O)c3ccccc3c2c1
Procedure, shortened: as §1

[17] = compound: CN1C2=C(C3=C1C(=O)N(N=C3)CC4=CC(=CC=C4)N)SC(=C2)S(=O)C
Procedure, shortened: as §1

[18] = compound: CN1CCC(CNc2ccc3ncc(-c4cccc(OC(F)(F)F)c4)n3n2)CC1
Procedure, shortened: as §1

[19] = compound: CCn1c(C(=O)N(C2CC2)C2CC2)cc2c3c(ncn3C)c(Nc3cc(C)n(C)n3)nc21
Procedure, shortened: as §1

[20] = compound: CN(CCOC1=CC=C(C=C1)C[C@H]2C(=O)NC(=O)S2)C3=CC=CC=N3 (racemic) [rosiglitazone]
Procedure, shortened: as §1

Target | log2 fold change [1] | log2 fold change [2] | log2 fold change [3] | log2 fold change [4] | log2 fold change [5] | log2 fold change [6] | log2 fold change [7] | log2 fold change [8] | log2 fold change [9] | log2 fold change [10] | log2 fold change [11] | log2 fold change [12] | log2 fold change [13] | log2 fold change [14] | log2 fold change [15] | log2 fold change [16] | log2 fold change [17] | log2 fold change [18] | log2 fold change [19] | log2 fold change [20]
IFT74 (UniProt Q96LB3) | inactive: -0.086 | inactive: -0.044 | inactive: -0.01 | inactive: -0.084 | active: 0.746 | inactive: -0.059 | inactive: 0.005 | inactive: -0.007 | inactive: 0.26 | inactive: -0.037 | inactive: 0.125 | inactive: 0.01 | inactive: -0.319 | inactive: -0.061 | inactive: 0 | inactive: -0.051 | inactive: 0.025 | inactive: -0.05 |  | 
IFI30 (UniProt P13284) | inactive: -0.043 | inactive: 0.043 | inactive: 0.018 | inactive: -0.046 | inactive: 0.056 | inactive: 0.056 | inactive: 0.183 | inactive: 0.034 | inactive: 0.018 | inactive: 0.028 | active: -0.443 | active: -0.436 | inactive: 0.038 | inactive: -0.014 | inactive: -0.098 | inactive: -0.021 | inactive: -0.06 | active: -0.448 |  | 
IMMP1L (UniProt Q96LU5) | inactive: 0.003 | inactive: 0.067 | inactive: 0.008 | inactive: -0.029 | inactive: -0.085 | inactive: -0.055 | inactive: -0.031 | inactive: 0.273 | inactive: -0.048 | inactive: -0.024 | inactive: -0.012 | inactive: -0.055 | inactive: -0.02 | inactive: -0.015 |  | inactive: 0.017 | inactive: -0.097 |  |  | 
INTS7 (UniProt Q9NVH2) | inactive: 0.134 | inactive: -0.007 | inactive: 0.088 | inactive: 0.091 | inactive: -0.001 | inactive: 0.039 | inactive: 0.018 | inactive: 0.027 | inactive: 0.242 | inactive: 0.022 | inactive: 0.035 | inactive: -0.313 | inactive: 0.1 | inactive: -0.029 | inactive: -0.1 | inactive: 0.038 | inactive: 0.069 | inactive: 0.3 |  | 
ITGAE (UniProt P38570) | inactive: -0.377 | inactive: 0.007 | inactive: -0.128 | inactive: -0.362 | inactive: 0.33 | inactive: -0.001 | inactive: -0.082 | inactive: -0.092 | inactive: 0.342 | inactive: 0.009 |  | inactive: 0.06 | inactive: -0.324 | inactive: 0.051 | inactive: -0.203 | inactive: -0.014 |  | inactive: -0.225 | inactive: -0.107 | inactive: 0.036
IFRD1 (UniProt O00458) | inactive: 0.123 | inactive: 0.033 | inactive: 0.098 | inactive: -0.04 | inactive: -0.103 | inactive: 0.001 | inactive: 0.058 | inactive: -0.111 | inactive: -0.154 | inactive: -0.079 | inactive: 0.107 | inactive: -0.015 | inactive: -0.14 | inactive: 0.053 | inactive: -0.016 | inactive: -0.143 | inactive: -0.097 | inactive: 0.297 |  | 
ILVBL (UniProt A1L0T0) | inactive: -0.021 | inactive: -0.052 | inactive: 0.005 | inactive: -0.051 | inactive: 0.007 | inactive: 0.037 | inactive: 0.049 | inactive: 0.004 | inactive: -0.002 | inactive: 0.021 | inactive: 0.049 | inactive: 0.069 | inactive: -0.034 | inactive: 0.069 | inactive: 0.042 | inactive: 0.036 | inactive: -0.068 | inactive: 0.019 |  | 
ILF2 (UniProt Q12905) | inactive: 0.036 | inactive: -0.032 | inactive: -0.031 | inactive: -0.041 | inactive: 0.084 | inactive: 0.028 | inactive: -0.042 | inactive: 0.032 | inactive: -0.02 | inactive: -0.119 | inactive: 0.277 | inactive: 0.281 | inactive: 0.029 | inactive: -0.186 | inactive: 0.2 | inactive: -0.053 | inactive: 0.16 | inactive: 0.352 |  | 
IPO7 (UniProt O95373) | inactive: 0.004 | inactive: -0.007 | inactive: 0.035 | inactive: 0.035 | inactive: 0.009 | inactive: 0.025 | inactive: 0.081 | inactive: -0.007 | inactive: 0.009 | inactive: 0.047 | active: -0.248 | active: -0.542 | inactive: 0.067 | inactive: -0.007 | inactive: -0.038 | inactive: 0.051 | inactive: -0.011 | active: -0.248 |  | 

Reference: the supplement of paper PMC10849652
